Experimental data from PubChem BioAssay AID1508600 (Functional Genomics Laboratory (NCATS/FGL), 2020).
Among all 53,000 sequences or so, about 3,700 (7%) were called active.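 The calls were made as follows: active = gene knockdowns whose robust z-score for IL-1 alpha signal is at least 2 or at most -2, so actives lie on both sides; inactive = the rest.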 This is one part of the list.

Experiment: Components of the Cytosolic LPS Sensing Pathway: Gene Identification via Genome-wide siRNA Screen;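 also: robust z of the log signal after scaling to non-targeting control siRNA wells of the plate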
Conditions: RAW264.7 macrophages, IL-1a HTRF, actives lie on both sides, screened at 100 nM (by protocol), cells primed 5 h with Pam3CSK4 first
How it was run: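 Three distinct siRNAs per gene were tested singly at 100 nM in RAW264.7 macrophages. Following Pam3CSK4 priming and 24 hour LipidA transfection, IL-1a secretion was read by HTRF.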

| Sequence | z-score |
| --- | --- |
| CCAUCUCAAACACCAAUCGTT against Timd4 | inactive: -1.42 |
| CCCAGGUAGUAUACAAGGUTT against Pcdh1 | active: 2.42 |
| GGAAAGUGGUUUUGUCCACTT against Ing5 | inactive: 0.361 |
| GCAAAGAGGCCUAAUUGAATT against B2m | inactive: 1.16 |
| CCACAGGGAUAGAUACUCCTT against Olfr566 | inactive: -0.339 |
| CCUCUCUUUAACAGGUCACTT against 1700034H15Rik | inactive: 1.35 |
| CGAGUAUCCCGUCAAGUUGTT against 6820408C15Rik | inactive: -0.699 |
| GGAAAGCCACUGUGUAAAATT against Armc9 | inactive: 0.594 |
| GCACAGGUUCAAGUGGAACTT against Prnd | inactive: -1.41 |
| GGUACUGAGCUUGAUUGUATT against Mfsd7a | inactive: 1.26 |
| GCCAUGAGGAGAUUCAAGGTT against Klra5 | inactive: 0.749 |
| GGAACAAAGACGUAAAAAATT against Olfr1101 | inactive: -0.825 |
| GGCGAUGUGACCAUUACAATT against Cct4 | inactive: -1.5 |
| CCGGAGUGACCAUAUUCGUTT against Fgr | inactive: -0.446 |
| GCAUCUAUAAUUCUAUACCTT against BC023105 | inactive: 0.39 |
| GGUAUUUAAGUGAUACAUCTT against Ddost | inactive: -0.321 |
| GGUUACAAUCCAUGAGAAATT against Anapc1 | inactive: -0.059 |
| CCAAAUCUGUUGAUGAUUCTT against Setmar | inactive: -0.184 |
| CGGGAUAGUAACUUCUUAATT against Mettl21a | inactive: 0.801 |
| GGUAGAACAUGAAGUCUCUTT against St6galnac4 | inactive: -1.45 |
| CGCAGUCCUGUCAGACUUUTT against Otud7a | inactive: 1.08 |
| GGCUUUUUUGUCUUAGGCUTT against A530013C23Rik | inactive: 0.00244 |
| GAACUGGAAUGCCUGAUGGTT against Gm10037 | inactive: -0.642 |

| Sequence | z-score |
| --- | --- |
| CGUAAAUUCACCAAGGAGCTT against Slc19a1 | inactive: -0.805 |
| CGUUCUUCAUGAAACAUUCTT against Ryr3 | inactive: 0.8 |
| GGCCUUAACCUGAUAGUUGTT against Nt5m | inactive: 0.186 |
| GUGACAGUGGCAUCAGCAUTT against Smim14 | inactive: 0.876 |
| GCACUCGAAUUUCUUUACUTT against Slc23a2 | active: 2.22 |
| GGACAGUUCUAAAAUUCCCTT against Olfr780 | inactive: -1.73 |
| CCUGACCGUUAACAGCUGUTT against Aamp | inactive: 0.34 |
| GGGUCAGAAAAGUCUGUCATT against Vangl1 | inactive: -0.271 |
| CCACUCAAGCGGUAAGGAUTT against Slc22a1 | active: 4.16 |
| GGAGAGAAGUGACAACGAATT against Adamts8 | inactive: -0.862 |
| GGGCAUUGACCACAAAAAGTT against Ubiad1 | inactive: -1.03 |
| GGAUAGAAAACAGUAUCUGTT against Fggy | inactive: 1.07 |
| CCUCUACUUAAUGUGCAACTT against Npc1l1 | inactive: 1.08 |
| GCUAAGAAGAGGAUUCCAATT against Spag1 | inactive: -0.579 |
| GUCACAAGCUGUCCAACAATT against Ndufa7 | active: -2.25 |
| GGACCUUCCUACGAGAAAATT against Tm2d2 | inactive: 0.0894 |
| GGACAGCAAGACCAACCUATT against Elavl2 | inactive: -1.87 |
| GGUGGUCUGAUCGUAGACATT against Lrrc61 | inactive: 0.672 |
| GUUUUCAGAGCUCUGCAUUTT against Fam98b | inactive: 0.812 |
| GGAGUGAUUAACCUAACUCTT against Crip3 | inactive: -1.3 |
| GGAACAUCACCCUUGCCAATT against Scara5 | inactive: -0.89 |
| CGUAUAAUAACUCCUUAUCTT against Hoxa1 | active: 2.17 |
| GCAAUACUUAUCCAUUGCGTT against Msx3 | inactive: -0.42 |

| Sequence | z-score |
| --- | --- |
| GGGUAAAUCCUUCAUUCUGTT against Atl3 | inactive: 1.49 |
| CUUUCCUUCACUGAUGUCATT against Olfr666 | inactive: -1.42 |
| GCUAAUGCUAGUGAAAUUCTT against Rbm12b1 | inactive: 0.169 |
| UCACCAUCUUGAAGAUUCGTT against Olfr486 | inactive: -0.792 |
| GCAAGAGUCUGCUACGACATT against Opn1sw | inactive: 0.629 |
| CCAGAACUGUGAGUGGAUUTT against Nrp2 | inactive: -0.644 |
| GCGAGAGCUUCUUAACUGUTT against Ssh2 | inactive: 1.54 |
| GCAGACCUAACUAAGCUUUTT against Vmn2r30 | inactive: -0.504 |
| GCUGACCGGCAUUUACCAUTT against Mcm2 | active: 2.78 |
| GCACUACAUUGUGGCUGUCTT against Itpr3 | active: -2.57 |
| CGCCGCACAGUUAAUGCUUTT against Mettl17 | inactive: 0.973 |
| GGCUGUGGUAUUUUUGGUUTT against Vopp1 | active: 2.15 |
| GGUGUUGAGUUCAAGUCUATT against Dennd11 | inactive: -0.468 |
| GCGAUUCUGUUGUUAGCUUTT against Rln1 | inactive: 0.134 |
| GGAAGCUUAAUUGUGCACATT against Zfp637 | inactive: 0.184 |
| CCAGGACCUUAUCAGGUUUTT against Idh2 | active: 2.44 |
| GCUUGAUGGAAUCUUCUAGTT against 1700030K09Rik | inactive: 0.508 |
| GGAUGAAGUGCUAAUAGGATT against Fam3b | inactive: 0.309 |
| GGGCAUGGACAAAAAGAAGTT against Prpf3 | inactive: -1.78 |
| GGCAUAGCCAUGAUGACAUTT against Denn2b | inactive: -1.3 |
| GGAGUACAGCAUCUCAGCATT against Cacng1 | active: -2.17 |
| GGCUGCACACAAUAUGAACTT against Mrm2 | inactive: 0.134 |

6 neighbouring records out of the list so far, quoted:

| Sequence | z-score |
| --- | --- |
| GCAAGAGUCUGCUACGACATT against Opn1sw | inactive: 0.629 |
| CCAGAACUGUGAGUGGAUUTT against Nrp2 | inactive: -0.644 |
| GCGAGAGCUUCUUAACUGUTT against Ssh2 | inactive: 1.54 |
| GCAGACCUAACUAAGCUUUTT against Vmn2r30 | inactive: -0.504 |
| GCUGACCGGCAUUUACCAUTT against Mcm2 | active: 2.78 |
| GCACUACAUUGUGGCUGUCTT against Itpr3 | active: -2.57 |
